{
  "sequences": {"note": "Chains of the proteins cited; added tags and fusions are not shown.", "UniProt O46414": "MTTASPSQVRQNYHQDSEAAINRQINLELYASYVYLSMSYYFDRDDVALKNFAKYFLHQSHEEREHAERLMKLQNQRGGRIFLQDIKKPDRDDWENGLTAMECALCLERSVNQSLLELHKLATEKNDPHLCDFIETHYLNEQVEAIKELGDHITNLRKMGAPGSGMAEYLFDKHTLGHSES"},
  "source": "paper PMC9686786",
  "molecular_target": "T1, heme oxygenase-1 (HMOX1) (bovine (endogenous in MAC-T)) (UniProt Q5E9F2)",
  "T1 sequence": "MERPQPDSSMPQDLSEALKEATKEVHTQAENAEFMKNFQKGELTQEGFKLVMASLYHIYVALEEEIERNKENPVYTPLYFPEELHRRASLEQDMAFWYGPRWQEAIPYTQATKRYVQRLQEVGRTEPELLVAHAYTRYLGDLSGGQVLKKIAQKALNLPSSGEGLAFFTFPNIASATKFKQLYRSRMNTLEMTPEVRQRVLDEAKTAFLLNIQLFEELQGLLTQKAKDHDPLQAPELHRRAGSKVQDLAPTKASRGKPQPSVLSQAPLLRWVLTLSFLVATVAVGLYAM",
  "test": "co-IP; endogenous proteins from MAC-T cells treated with or without LPS (100 ug/mL, 24 h); Pierce Co-IP kit, Protein A/G agarose beads with anti-HMOX1, anti-FTH1 or control IgG; detected by Western blot",
  "note": "These are yes or no findings as the source states them, for the method shown. In cells and extracts the contact can be indirect. Some results given as binding are weak or reduced against the parent protein; the word gives no strength.",
  "data": [
    {"substance": "ferritin heavy chain 1 (FTH1) (from UniProt O46414 1-181)", "values": [
      {"measurement": "binding", "result": "binds"}
    ]}
  ]
}
